In article PMC7862700 one finds binding signal data, which are given here for 30 sequences.

Chains of the proteins cited; added tags and fusions are not shown. Lines headed by an entry give the natural chain unless they say otherwise; changes in a name come on top.
UniProt Q01892: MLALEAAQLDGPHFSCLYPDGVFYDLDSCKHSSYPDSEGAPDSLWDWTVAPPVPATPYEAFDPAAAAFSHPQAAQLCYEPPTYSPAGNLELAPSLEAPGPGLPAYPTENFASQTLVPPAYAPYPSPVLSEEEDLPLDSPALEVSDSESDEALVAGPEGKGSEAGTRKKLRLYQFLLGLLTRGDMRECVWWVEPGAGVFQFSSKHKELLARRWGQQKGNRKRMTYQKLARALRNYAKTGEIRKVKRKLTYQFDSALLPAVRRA
UniProt P41161: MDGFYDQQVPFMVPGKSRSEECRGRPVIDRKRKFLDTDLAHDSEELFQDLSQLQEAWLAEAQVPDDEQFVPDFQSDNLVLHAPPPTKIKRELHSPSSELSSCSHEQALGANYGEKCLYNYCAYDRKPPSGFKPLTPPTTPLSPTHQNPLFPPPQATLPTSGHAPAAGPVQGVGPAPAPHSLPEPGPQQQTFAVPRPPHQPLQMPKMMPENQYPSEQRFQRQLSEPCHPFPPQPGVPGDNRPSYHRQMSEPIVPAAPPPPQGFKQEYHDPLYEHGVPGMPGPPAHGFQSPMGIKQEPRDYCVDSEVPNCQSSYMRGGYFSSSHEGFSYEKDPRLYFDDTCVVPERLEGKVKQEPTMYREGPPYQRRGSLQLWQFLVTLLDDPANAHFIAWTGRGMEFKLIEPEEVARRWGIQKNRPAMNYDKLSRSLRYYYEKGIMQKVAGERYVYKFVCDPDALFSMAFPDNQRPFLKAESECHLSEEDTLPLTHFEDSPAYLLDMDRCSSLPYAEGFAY
UniProt Q99607: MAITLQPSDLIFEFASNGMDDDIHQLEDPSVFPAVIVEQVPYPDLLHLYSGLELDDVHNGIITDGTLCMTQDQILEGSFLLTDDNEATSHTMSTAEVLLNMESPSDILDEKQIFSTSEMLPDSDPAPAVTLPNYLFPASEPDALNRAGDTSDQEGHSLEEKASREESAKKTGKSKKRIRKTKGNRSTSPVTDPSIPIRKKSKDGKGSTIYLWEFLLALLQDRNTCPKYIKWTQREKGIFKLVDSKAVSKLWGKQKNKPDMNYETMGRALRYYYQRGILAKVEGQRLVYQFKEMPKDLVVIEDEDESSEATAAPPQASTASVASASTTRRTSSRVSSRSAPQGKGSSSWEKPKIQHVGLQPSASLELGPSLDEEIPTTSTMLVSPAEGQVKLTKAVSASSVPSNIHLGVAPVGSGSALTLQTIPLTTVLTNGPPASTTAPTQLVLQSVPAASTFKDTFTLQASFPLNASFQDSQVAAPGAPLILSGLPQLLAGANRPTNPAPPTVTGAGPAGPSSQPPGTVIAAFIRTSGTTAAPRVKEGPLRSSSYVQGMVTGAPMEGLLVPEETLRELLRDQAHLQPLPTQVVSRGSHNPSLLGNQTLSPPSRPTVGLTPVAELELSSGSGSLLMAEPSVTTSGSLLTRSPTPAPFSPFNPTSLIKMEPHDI

Only a part is listed here, and it is no random draw. At the low end of the ranking the order means little.

Targets include SPIB (UniProt Q01892); ETV5 (UniProt P41161); ELF4 (UniProt Q99607).
Holding throughout (test): DAPPL (digital affinity profiling via proximity ligation, sequencing)
Common to all, as to conditions: 10 mM Tris-HCl pH 7.5, 50 mM NaCl, 1 mM DTT, 4% glycerol, room temperature, 30 min; GST-TFs on glutathione beads, 16-mer random dsDNA library, 0.1% …; high values mean tight binding; double strand, one strand shown; scale: fold enrichment (6-mer frequency, TF over GST control)

The target in the next test is T1, FLI1 (UniProt Q01543).
T1 sequence: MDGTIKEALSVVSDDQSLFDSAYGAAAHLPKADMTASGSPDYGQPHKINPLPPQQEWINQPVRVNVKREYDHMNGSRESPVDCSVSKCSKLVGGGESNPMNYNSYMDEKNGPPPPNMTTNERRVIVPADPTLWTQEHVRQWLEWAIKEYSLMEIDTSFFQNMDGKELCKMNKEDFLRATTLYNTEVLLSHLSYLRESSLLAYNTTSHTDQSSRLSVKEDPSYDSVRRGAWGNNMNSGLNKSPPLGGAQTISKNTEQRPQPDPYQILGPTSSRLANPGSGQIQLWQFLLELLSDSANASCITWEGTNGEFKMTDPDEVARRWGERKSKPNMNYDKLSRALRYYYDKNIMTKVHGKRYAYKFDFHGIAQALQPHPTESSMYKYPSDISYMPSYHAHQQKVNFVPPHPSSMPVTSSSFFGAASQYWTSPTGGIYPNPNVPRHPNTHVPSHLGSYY

The next test has as its target T2, EHF (UniProt Q9NZC4).
T2 sequence: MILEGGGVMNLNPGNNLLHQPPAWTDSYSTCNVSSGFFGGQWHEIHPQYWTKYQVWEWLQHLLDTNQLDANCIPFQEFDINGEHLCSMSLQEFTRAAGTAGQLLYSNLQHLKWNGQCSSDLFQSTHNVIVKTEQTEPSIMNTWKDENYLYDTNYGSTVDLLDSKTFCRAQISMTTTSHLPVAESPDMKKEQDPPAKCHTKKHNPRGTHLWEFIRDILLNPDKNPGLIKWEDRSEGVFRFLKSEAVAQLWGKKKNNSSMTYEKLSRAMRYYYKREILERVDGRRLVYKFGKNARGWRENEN

For the next test, the target named is T3, ETV2 (UniProt O00321).
T3 sequence: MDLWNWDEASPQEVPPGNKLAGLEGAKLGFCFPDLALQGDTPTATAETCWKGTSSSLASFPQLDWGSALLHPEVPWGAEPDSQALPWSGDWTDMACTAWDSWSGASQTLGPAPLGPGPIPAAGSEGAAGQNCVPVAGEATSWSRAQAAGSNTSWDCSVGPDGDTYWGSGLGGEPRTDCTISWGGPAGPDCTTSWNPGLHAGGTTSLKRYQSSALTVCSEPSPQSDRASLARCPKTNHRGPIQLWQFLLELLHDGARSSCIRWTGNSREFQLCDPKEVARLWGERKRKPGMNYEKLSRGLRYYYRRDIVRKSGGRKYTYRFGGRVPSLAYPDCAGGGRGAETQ

For a further test, the target named is T4, ETV3L (UniProt Q6ZN32).
T4 sequence: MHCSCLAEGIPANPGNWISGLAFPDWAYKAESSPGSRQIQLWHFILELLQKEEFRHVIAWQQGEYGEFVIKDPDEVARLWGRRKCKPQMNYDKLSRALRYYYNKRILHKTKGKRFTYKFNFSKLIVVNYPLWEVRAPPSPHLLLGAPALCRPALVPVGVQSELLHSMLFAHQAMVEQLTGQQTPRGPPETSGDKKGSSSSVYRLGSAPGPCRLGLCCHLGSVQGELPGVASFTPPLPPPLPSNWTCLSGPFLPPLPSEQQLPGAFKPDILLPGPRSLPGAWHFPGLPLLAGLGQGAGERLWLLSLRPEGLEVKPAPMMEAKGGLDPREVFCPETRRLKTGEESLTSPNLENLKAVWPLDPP

With AGGCGG, the binding signal with FLI1 was 0.236; with EHF, 0.288; with SPIB it was 0.273; with ETV5 it was 0.251; with ELF4, 0.228; in the test with ETV2, 0.239. For the same sequence, the binding signal in the test with ETV3L came to 0.259.

Turning to GGAGAC, the binding signal stood at 0.152 in the test with FLI1; 0.15 with EHF; 0.145 with SPIB; 0.148 with ETV5; 0.135 with ELF4; 0.153 with ETV2. Further, in the test with ETV3L, the binding signal came out at 0.15.

Regarding GTTGAG, the binding signal was determined as 0.715 with FLI1; 0.621 with EHF; 0.636 with SPIB; 0.652 in the test with ETV5; 0.7 with ELF4; 0.732 with ETV2. In the test with ETV3L, this sequence gave a binding signal of 0.669.

On to CATGTG, for which the binding signal came to 0.78 in the test with FLI1; 0.818 with EHF; 0.907 with SPIB; 0.85 with ETV5; 0.819 with ELF4; 0.934 in the test with ETV2. This sequence also gave a binding signal in the test with ETV3L of 0.933.

AGGAGT: the binding signal turned out to be 0.349 in the test with FLI1; 0.407 in the test with EHF; 0.418 in the test with SPIB; 0.391 with ETV5; 0.351 in the test with ELF4; 0.358 with ETV2. Further, in the test with ETV3L, the binding signal came to 0.363.

Turning to GCGGAG, the binding signal with FLI1 came to 0.24; with EHF it was 0.257; with SPIB it was 0.249; in the test with ETV5 it was 0.26; with ELF4 it was 0.244; with ETV2 it was 0.273. The sequence further yielded a binding signal with ETV3L of 0.257.

As to AACCGT, the binding signal with FLI1 came to 0.544; with EHF it was 0.467; in the test with SPIB, 0.503; with ETV5, 0.518; with ELF4, 0.507; with ETV2, 0.5. Further, the binding signal in the test with ETV3L turned out to be 0.532.

As for GCGTAA, the binding signal is 0.886 with FLI1; 0.91 with EHF; 0.95 with SPIB; 0.841 with ETV5; 0.897 with ELF4; 0.857 in the test with ETV2. This sequence registered a binding signal with ETV3L of 0.886.

Take AAAGAG: the binding signal with FLI1 was determined as 0.902; with EHF it was 0.975; in the test with SPIB, 0.928; with ETV5, 0.946; in the test with ELF4, 0.951; with ETV2 it was 0.914. The binding signal with ETV3L was determined as 0.876.

Consider GTGGAG, for which the binding signal with FLI1 came out at 0.406; with EHF it was 0.484; with SPIB, 0.36; with ETV5 it was 0.446; with ELF4 it was 0.397; with ETV2 it was 0.36. Moreover, in the test with ETV3L, the binding signal was determined as 0.435.

Consider CGAGTG, for which the binding signal with FLI1 came to 0.806; with EHF it was 0.821; with SPIB it was 0.714; in the test with ETV5 it was 0.762; with ELF4, 0.907; in the test with ETV2, 0.984. Besides, the binding signal with ETV3L is 0.865.

As for AGTCGC, the binding signal in the test with FLI1 was 0.492; with EHF, 0.478; with SPIB, 0.489; in the test with ETV5, 0.508; with ELF4, 0.518; with ETV2 it was 0.539. In the test with ETV3L, this sequence gave a binding signal of 0.481.

Consider GCGGGG, for which the binding signal was 0.466 with FLI1; 0.44 with EHF; 0.465 in the test with SPIB; 0.436 in the test with ETV5; 0.494 with ELF4; 0.501 in the test with ETV2. The sequence also came in with a binding signal with ETV3L of 0.508.

GGGAGG: the binding signal came to 0.323 in the test with FLI1; 0.312 with EHF; 0.298 with SPIB; 0.306 in the test with ETV5; 0.314 with ELF4; 0.303 in the test with ETV2. For the same sequence, in the test with ETV3L, the binding signal came out at 0.332.

For the sequence GGGATC, the binding signal is 0.629 with FLI1; 0.62 in the test with EHF; 0.562 with SPIB; 0.595 in the test with ETV5; 0.638 in the test with ELF4; 0.514 with ETV2. In addition, the binding signal in the test with ETV3L stood at 0.609.

Consider GAGTCA, for which the binding signal with FLI1 came to 0.264; in the test with EHF, 0.287; with SPIB, 0.246; with ETV5 it was 0.297; with ELF4, 0.28; in the test with ETV2, 0.296. In addition, in the test with ETV3L, the binding signal turned out to be 0.29.

For the sequence GTGAGA, the binding signal in the test with FLI1 was 0.346; with EHF, 0.306; with SPIB, 0.31; in the test with ETV5, 0.322; with ELF4, 0.328; with ETV2, 0.314. The same sequence displayed a binding signal in the test with ETV3L of 0.307.

For the sequence TCAGGG, the binding signal in the test with FLI1 worked out at 0.886; in the test with EHF, 0.806; in the test with SPIB, 0.891; with ETV5, 0.815; with ELF4 it was 0.892; in the test with ETV2, 0.799. The same sequence gave a binding signal with ETV3L of 0.833.

Regarding CCGTTG, the binding signal turned out to be 0.979 with FLI1; 0.828 in the test with EHF; 0.887 with SPIB; 0.869 with ETV5; 0.887 with ELF4; 0.816 in the test with ETV2. The sequence also displayed a binding signal in the test with ETV3L of 0.916.

GCATAA: the binding signal worked out at 0.84 in the test with FLI1; 0.848 with EHF; 0.844 with SPIB; 0.901 with ETV5; 0.853 with ELF4; 0.812 with ETV2. Besides, the binding signal with ETV3L amounted to 0.817.

For the sequence ACGTGC, the binding signal stood at 0.666 with FLI1; 0.764 in the test with EHF; 0.636 with SPIB; 0.684 in the test with ETV5; 0.727 with ELF4; 0.821 with ETV2. Moreover, the binding signal with ETV3L was 0.713.

For the sequence AGGTTA, the binding signal with FLI1 was found to be 0.789; with EHF it was 0.804; in the test with SPIB, 0.759; with ETV5, 0.775; with ELF4 it was 0.811; with ETV2, 0.837. In addition, the binding signal in the test with ETV3L was determined as 0.809.

CCAGGT: the binding signal is 0.725 in the test with FLI1; 0.677 in the test with EHF; 0.833 with SPIB; 0.735 with ETV5; 0.78 in the test with ELF4; 0.647 with ETV2. Moreover, in the test with ETV3L, the binding signal stood at 0.751.

On to GGTCCG, for which the binding signal in the test with FLI1 came out at 0.687; in the test with EHF, 0.785; with SPIB, 0.765; with ETV5, 0.806; in the test with ELF4, 0.682; with ETV2, 0.715. This sequence came in with a binding signal with ETV3L of 0.817.

With AGCTGG, the binding signal with FLI1 turned out to be 0.952; in the test with EHF, 0.897; with SPIB it was 0.921; with ETV5, 0.819; in the test with ELF4, 0.872; in the test with ETV2 it was 0.757. In the test with ETV3L, the binding signal worked out at 0.952.

In the case of GAGCAA, the binding signal with FLI1 is 0.683; with EHF it was 0.708; with SPIB, 0.741; in the test with ETV5 it was 0.649; with ELF4, 0.768; with ETV2, 0.808. The binding signal in the test with ETV3L stood at 0.721.

In the case of AGCCAA, the binding signal in the test with FLI1 stood at 0.903; in the test with EHF it was 0.87; with SPIB, 0.886; in the test with ETV5, 0.875; with ELF4, 0.922; with ETV2, 0.851. This sequence also gave a binding signal with ETV3L of 0.871.

Turning to GATCAG, the binding signal stood at 0.736 with FLI1; 0.769 with EHF; 0.682 with SPIB; 0.717 with ETV5; 0.735 in the test with ELF4; 0.751 with ETV2. In the test with ETV3L, this sequence displayed a binding signal of 0.791.

With CCATGT, the binding signal stood at 0.815 with FLI1; 0.879 with EHF; 0.847 with SPIB; 0.802 with ETV5; 0.844 in the test with ELF4; 0.868 in the test with ETV2. Moreover, the binding signal in the test with ETV3L was determined as 0.915.

For GTAAGT, the binding signal came out at 0.757 in the test with FLI1; 0.74 in the test with EHF; 0.702 in the test with SPIB; 0.802 with ETV5; 0.716 with ELF4; 0.743 in the test with ETV2. Also, the binding signal with ETV3L was 0.716.
